The list shows a part of the results.
Compound: CC1Cc2ccccc2N1C(=O)C1CCCN(C1)C(=O)CCl (mixture of isomers) [TRIM25 ligand 11 (diastereomer mixture)]
Test: probe-labelled cysteine peptide fold change vs DMSO (competition) (log2 fold change); higher = less target engagement (more negative = stronger competition)
Conditions: 10 µM; THP-1; incubation time: 4 h
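Further: competitive chemoproteomic profiling in live THP-1 cells with an iodoacetamide desthiobiotin (IA-DTB) probe, comparing probe-labelled peptide intensities in compound-treated cells against DMSO-treated controls.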

Sequences of proteins named here, by UniProt entry; tags and fusion partners are left off. A change or cut given only in a name is not applied to a line headed by its entry.
UniProt Q9Y2X3: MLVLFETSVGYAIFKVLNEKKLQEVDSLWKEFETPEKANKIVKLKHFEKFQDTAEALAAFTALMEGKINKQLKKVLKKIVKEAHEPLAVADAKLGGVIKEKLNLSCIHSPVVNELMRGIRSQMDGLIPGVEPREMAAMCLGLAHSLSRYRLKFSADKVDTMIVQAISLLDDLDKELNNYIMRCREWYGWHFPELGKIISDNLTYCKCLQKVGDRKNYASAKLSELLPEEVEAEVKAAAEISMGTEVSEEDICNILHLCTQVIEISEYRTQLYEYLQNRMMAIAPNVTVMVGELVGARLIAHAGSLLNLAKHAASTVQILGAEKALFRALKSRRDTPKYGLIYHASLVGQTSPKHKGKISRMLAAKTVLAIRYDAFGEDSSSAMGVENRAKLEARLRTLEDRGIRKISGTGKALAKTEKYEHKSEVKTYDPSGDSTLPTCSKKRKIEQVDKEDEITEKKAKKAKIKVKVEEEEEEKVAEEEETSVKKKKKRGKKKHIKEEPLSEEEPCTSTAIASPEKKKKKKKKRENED
UniProt Q08J23, whole entry, looked up: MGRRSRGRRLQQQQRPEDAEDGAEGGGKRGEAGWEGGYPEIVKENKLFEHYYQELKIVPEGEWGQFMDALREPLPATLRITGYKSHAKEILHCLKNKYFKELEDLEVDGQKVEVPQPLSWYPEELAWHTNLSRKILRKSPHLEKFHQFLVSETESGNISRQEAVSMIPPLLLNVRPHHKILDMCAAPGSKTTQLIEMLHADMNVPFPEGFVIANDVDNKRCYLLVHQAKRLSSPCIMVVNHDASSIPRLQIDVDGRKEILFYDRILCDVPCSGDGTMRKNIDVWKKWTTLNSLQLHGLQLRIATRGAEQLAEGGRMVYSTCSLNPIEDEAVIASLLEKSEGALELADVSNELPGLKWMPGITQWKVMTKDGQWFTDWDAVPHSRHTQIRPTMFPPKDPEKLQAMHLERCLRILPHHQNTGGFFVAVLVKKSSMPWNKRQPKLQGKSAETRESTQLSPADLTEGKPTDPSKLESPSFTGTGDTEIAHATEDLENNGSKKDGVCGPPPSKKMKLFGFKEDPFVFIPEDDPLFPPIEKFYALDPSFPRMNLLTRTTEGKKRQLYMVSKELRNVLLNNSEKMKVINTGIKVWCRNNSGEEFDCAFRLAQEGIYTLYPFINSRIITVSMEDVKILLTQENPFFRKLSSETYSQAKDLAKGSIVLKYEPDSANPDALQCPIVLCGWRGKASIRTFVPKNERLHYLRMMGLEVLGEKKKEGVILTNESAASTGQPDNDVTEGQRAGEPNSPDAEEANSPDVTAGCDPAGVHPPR
UniProt Q04721: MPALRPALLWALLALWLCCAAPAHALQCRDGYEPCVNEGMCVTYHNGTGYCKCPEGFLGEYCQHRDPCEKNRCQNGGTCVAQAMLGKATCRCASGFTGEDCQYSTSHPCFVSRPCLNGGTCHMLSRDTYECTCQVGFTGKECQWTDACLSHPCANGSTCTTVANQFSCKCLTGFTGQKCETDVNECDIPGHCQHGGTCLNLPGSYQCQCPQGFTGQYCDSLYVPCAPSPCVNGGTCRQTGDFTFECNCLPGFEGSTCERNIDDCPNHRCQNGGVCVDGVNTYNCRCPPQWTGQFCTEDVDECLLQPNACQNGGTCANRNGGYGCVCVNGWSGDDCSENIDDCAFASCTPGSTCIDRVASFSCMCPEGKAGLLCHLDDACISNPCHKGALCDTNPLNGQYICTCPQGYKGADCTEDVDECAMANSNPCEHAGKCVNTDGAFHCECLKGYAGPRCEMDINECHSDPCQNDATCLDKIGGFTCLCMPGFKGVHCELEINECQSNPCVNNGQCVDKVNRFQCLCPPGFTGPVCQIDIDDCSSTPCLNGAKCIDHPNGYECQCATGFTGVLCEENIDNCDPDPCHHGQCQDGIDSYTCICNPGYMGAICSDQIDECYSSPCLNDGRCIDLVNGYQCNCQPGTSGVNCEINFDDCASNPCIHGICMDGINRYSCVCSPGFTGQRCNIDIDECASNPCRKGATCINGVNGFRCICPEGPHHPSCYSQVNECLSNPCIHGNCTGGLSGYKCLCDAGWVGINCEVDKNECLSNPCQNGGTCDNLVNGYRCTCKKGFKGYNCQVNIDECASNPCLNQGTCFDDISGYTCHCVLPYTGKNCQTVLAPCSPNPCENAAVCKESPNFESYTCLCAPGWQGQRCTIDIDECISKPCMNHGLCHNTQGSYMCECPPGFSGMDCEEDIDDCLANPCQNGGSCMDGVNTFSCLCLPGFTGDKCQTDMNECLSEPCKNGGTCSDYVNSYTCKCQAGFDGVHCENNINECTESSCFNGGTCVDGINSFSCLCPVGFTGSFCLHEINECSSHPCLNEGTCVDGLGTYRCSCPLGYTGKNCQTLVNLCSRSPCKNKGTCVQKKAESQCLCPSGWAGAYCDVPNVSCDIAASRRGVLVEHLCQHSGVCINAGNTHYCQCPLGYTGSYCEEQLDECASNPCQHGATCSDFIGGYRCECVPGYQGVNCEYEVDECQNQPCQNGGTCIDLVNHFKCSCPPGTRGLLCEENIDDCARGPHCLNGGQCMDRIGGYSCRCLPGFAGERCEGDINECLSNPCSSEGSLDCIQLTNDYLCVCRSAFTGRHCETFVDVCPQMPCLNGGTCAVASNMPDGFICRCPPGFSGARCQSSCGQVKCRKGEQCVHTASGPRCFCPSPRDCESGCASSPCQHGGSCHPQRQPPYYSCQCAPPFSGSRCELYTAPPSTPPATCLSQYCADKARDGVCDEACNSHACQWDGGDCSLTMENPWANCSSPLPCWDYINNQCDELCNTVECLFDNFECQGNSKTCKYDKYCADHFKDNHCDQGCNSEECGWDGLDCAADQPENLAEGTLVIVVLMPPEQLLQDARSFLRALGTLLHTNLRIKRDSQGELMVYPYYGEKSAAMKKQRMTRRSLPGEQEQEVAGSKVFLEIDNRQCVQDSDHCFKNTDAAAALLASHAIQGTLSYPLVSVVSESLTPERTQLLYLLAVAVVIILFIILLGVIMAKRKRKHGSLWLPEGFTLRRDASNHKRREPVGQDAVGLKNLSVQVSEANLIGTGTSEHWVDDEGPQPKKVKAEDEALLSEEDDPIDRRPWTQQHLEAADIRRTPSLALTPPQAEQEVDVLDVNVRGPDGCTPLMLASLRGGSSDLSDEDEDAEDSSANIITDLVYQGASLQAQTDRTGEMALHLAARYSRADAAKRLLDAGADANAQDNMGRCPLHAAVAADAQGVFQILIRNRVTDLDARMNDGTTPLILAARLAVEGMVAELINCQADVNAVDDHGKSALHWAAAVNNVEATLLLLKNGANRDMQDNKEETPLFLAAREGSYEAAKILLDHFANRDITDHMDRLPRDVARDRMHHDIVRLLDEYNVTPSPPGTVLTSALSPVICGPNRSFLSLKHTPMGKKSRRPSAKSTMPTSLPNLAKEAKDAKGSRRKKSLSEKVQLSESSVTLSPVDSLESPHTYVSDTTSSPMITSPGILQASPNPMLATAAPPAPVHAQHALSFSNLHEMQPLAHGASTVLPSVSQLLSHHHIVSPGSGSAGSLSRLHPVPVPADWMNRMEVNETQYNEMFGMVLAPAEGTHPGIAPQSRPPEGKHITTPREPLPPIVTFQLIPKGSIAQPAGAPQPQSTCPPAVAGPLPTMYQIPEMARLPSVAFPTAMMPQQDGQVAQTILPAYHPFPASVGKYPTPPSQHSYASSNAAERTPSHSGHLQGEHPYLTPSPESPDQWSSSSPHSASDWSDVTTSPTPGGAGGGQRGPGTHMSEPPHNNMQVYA
UniProt Q9BYT8, whole entry, looked up: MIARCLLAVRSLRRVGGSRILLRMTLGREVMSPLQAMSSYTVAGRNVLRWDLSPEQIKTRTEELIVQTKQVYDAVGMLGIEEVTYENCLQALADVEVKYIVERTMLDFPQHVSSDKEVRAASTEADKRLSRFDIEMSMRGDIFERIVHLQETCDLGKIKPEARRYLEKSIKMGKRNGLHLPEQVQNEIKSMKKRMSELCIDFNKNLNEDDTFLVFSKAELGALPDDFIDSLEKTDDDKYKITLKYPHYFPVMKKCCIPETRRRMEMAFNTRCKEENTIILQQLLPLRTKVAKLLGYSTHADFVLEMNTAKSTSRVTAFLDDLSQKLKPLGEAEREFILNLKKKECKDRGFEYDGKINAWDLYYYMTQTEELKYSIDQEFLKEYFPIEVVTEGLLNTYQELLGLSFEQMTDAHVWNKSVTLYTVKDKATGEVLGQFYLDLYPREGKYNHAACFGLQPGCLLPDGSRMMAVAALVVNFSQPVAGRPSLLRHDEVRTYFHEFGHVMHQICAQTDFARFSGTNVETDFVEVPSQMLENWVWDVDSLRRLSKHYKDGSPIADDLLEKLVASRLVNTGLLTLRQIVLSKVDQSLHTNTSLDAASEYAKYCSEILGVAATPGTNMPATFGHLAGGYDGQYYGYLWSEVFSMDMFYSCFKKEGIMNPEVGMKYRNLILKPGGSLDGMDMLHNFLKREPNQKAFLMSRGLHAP
UniProt Q8NDH3: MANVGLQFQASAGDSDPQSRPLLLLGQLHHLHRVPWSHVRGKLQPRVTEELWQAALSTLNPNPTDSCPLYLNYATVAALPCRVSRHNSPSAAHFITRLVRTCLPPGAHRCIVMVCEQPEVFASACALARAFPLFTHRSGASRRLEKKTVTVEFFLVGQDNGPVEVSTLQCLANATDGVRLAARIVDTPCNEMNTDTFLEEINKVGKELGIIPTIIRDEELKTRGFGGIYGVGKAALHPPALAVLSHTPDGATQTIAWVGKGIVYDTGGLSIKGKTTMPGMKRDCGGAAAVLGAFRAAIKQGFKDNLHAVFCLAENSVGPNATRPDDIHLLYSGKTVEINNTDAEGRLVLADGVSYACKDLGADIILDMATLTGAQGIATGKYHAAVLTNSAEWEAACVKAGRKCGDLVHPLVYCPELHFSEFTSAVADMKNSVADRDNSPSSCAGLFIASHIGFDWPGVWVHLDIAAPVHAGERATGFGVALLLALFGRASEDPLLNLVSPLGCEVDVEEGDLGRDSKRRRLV
UniProt Q86UT6, whole entry, looked up: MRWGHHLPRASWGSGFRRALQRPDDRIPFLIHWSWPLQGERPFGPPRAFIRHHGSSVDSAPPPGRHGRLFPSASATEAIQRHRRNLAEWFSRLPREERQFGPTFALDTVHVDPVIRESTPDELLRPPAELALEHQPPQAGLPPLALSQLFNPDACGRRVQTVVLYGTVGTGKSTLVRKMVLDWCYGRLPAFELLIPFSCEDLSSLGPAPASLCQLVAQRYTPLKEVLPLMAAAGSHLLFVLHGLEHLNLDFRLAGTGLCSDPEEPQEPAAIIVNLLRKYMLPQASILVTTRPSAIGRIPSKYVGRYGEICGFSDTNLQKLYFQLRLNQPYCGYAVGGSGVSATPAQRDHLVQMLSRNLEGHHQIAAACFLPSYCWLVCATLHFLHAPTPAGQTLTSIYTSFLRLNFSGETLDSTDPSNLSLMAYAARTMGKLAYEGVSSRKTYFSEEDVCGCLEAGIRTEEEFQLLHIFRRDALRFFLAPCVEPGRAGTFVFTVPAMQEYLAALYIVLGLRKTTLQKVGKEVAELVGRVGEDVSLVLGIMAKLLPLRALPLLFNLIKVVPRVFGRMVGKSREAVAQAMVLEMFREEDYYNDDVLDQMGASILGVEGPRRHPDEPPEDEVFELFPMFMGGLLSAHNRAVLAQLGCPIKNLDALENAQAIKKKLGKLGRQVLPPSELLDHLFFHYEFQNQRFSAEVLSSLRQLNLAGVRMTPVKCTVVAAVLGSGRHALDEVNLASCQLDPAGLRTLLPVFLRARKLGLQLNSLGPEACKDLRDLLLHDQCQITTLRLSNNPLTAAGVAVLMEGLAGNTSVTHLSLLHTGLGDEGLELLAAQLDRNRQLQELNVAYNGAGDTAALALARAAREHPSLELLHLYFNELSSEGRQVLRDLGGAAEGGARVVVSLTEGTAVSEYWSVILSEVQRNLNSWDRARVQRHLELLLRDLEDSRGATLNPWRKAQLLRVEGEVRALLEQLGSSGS
UniProt Q15738: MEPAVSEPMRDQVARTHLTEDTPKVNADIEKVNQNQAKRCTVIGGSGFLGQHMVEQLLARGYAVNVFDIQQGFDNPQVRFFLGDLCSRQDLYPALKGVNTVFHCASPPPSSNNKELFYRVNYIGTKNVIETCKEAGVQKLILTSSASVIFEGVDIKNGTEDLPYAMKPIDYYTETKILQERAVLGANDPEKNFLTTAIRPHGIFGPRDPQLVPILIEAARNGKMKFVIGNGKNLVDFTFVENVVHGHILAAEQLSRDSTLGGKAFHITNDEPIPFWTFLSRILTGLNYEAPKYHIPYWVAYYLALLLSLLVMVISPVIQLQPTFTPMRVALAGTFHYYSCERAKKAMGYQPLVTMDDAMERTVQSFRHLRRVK

Target	probe-labelled cysteine peptide fold change
NKRF_O15226_386_VFLQDHCLAEGYGTKK (UniProt O15226)	-0.274
NOP58_Q9Y2X3_139_EMAAMCLGLAHSLSR (UniProt Q9Y2X3)	-0.0315
NSUN2_Q08J23_235_RLSSPCIMVVNHDASSIPR (UniProt Q08J23)	0.0184
NOP58_Q9Y2X3_106_LNLSCIHSPVVNELMR (UniProt Q9Y2X3)	0.0103
NSMAF_Q92636_721_ICWHDNR (UniProt Q92636)	0.0304
NOL6_Q9H6R4_633_LIPHQVVTHLLALHADIPETCVHYVGGPLDALIQGLK (UniProt Q9H6R4)	0.0255
NOTCH2_Q04721_427_GADCTEDVDECAMANSNPCEHAGK (UniProt Q04721)	0.107
NSMAF_Q92636_158_ASCLDK (UniProt Q92636)	0.119
NLN_Q9BYT8_451_YNHAACFGLQPGCLLPDGSR (UniProt Q9BYT8)	0.193
NSD2_O96028_1198_CGASNCSGFLGDRPK (UniProt O96028)	0.00758
NLN_Q9BYT8_153_IVHLQETCDLGK (UniProt Q9BYT8)	-0.0417
NOP2_P46087_487_CAHLQK (UniProt P46087)	-0.00715
NOL11_Q9H8H0_368_HSQDPGTHVVSHFVNWETPQGCGLGFQNSEQSR (UniProt Q9H8H0)	0.0119
NOL6_Q9H6R4_256_LHPCPPPDFFRPCR (UniProt Q9H6R4)	0.0181
NOL6_Q9H6R4_1034_QAVDSPAASFCR (UniProt Q9H6R4)	0.202
NOSIP_Q9Y314_185_TVTCPMSGKPLR (UniProt Q9Y314)	-0.216
NMD3_Q96D46_321_QLEEFIVMECSIVQDIK (UniProt Q96D46)	0.325
NLN_Q9BYT8_507_TYFHEFGHVMHQICAQTDFAR (UniProt Q9BYT8)	-0.0323

Target	probe-labelled cysteine peptide fold change
NOTCH2_Q04721_1211_CSCPPGTR (UniProt Q04721)	-0.0747
NKTR_P30414_173_VIDCGVLATK (UniProt P30414)	-0.279
NSUN2_Q08J23_235_LSSPCIMVVNHDASSIPR (UniProt Q08J23)	0.071
NPEPL1_Q8NDH3_284_DCGGAAAVLGAFR (UniProt Q8NDH3)	-0.201
NLRX1_Q86UT6_779_DLLLHDQCQITTLR (UniProt Q86UT6)	0.0756
NPTN_Q9Y639_218_AEDSGEYHCVYHFVSAPK (UniProt Q9Y639)	-0.0949
NSUN5_Q96P11_278+279_AGVSCCELAEEDFLAVSPSDPR (UniProt Q96P11)	0.234
NPEPL1_Q8NDH3_397_YHAAVLTNSAEWEAACVK (UniProt Q8NDH3)	0.0265
NIT2_Q9NQR4_76_ECSIYLIGGSIPEEDAGK (UniProt Q9NQR4)	0.174
NSDHL_Q15738_104_GVNTVFHCASPPPSSNNK (UniProt Q15738)	-0.0444
NNT_Q13423_1073_KTCDALQAK (UniProt Q13423)	-0.208
NRF1_Q16656_229_ESCKPIWWPEDIPWANVR (UniProt Q16656)	-0.0243
NLRC5_Q86WI3_917_KLDLSNNGLSVAGVHCVLR (UniProt Q86WI3)	-0.196
NKRF_O15226_453_DLVVYENSSNPVCTLNDTAQFNR (UniProt O15226)	0.21
NLE1_Q9NVX2_251_ILTGHTQSVTCLR (UniProt Q9NVX2)	0.085
NOTCH1_P46531_1345_CPAGFEGATCENDAR (UniProt P46531)	0.198
NOL10_Q9BSC4_55_RIELIQDFEMPTVCTTIK (UniProt Q9BSC4)	-0.0742
NLRX1_Q86UT6_735_HALDEVNLASCQLDPAGLR (UniProt Q86UT6)	0.0608

2 records picked at random from the list so far, as already listed:
Target	probe-labelled cysteine peptide fold change
NSDHL_Q15738_104_GVNTVFHCASPPPSSNNK (UniProt Q15738)	-0.0444
NSUN5_Q96P11_278+279_AGVSCCELAEEDFLAVSPSDPR (UniProt Q96P11)	0.234

Reference: the supplement of paper PMC12067093, “Discovery and optimisation of a covalent ligand for TRIM25 and its application to targeted protein ubiquitination” (Chemical Science, 2025)
